In paper PMC3857783, “Human Fanconi Anemia Complementation Group A Protein Stimulates the 5’ Flap Endonuclease Activity of FEN1” (PLoS ONE, 2013) one finds binding data, which are given here for two molecules.

Sequences of proteins named here, by UniProt entry; tags and fusion partners are left off. A change or cut given only in a name is not applied to a line headed by its entry.
UniProt P39748: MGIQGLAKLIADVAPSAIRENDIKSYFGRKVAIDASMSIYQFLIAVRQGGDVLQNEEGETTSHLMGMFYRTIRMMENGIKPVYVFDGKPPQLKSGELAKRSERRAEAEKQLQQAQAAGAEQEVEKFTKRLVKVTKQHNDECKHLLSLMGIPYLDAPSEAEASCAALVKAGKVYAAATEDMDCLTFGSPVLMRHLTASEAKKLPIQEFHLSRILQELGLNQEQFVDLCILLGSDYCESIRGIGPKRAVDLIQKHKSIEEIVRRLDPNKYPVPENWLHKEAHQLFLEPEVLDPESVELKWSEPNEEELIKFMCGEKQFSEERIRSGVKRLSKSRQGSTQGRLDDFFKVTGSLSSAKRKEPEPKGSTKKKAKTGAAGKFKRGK

No constants are given. Whether binding was seen depends on the method and setting. In cells and extracts the contact can be indirect. Some entries that bind do so weakly or less than the wild type. Tags and fused reporters may be left off the sequences shown.

Experiment [1] concerns the target T1, FLAG-FANCA (human Fanconi anemia complementation group A protein) (human) (UniProt O15360).
T1 sequence: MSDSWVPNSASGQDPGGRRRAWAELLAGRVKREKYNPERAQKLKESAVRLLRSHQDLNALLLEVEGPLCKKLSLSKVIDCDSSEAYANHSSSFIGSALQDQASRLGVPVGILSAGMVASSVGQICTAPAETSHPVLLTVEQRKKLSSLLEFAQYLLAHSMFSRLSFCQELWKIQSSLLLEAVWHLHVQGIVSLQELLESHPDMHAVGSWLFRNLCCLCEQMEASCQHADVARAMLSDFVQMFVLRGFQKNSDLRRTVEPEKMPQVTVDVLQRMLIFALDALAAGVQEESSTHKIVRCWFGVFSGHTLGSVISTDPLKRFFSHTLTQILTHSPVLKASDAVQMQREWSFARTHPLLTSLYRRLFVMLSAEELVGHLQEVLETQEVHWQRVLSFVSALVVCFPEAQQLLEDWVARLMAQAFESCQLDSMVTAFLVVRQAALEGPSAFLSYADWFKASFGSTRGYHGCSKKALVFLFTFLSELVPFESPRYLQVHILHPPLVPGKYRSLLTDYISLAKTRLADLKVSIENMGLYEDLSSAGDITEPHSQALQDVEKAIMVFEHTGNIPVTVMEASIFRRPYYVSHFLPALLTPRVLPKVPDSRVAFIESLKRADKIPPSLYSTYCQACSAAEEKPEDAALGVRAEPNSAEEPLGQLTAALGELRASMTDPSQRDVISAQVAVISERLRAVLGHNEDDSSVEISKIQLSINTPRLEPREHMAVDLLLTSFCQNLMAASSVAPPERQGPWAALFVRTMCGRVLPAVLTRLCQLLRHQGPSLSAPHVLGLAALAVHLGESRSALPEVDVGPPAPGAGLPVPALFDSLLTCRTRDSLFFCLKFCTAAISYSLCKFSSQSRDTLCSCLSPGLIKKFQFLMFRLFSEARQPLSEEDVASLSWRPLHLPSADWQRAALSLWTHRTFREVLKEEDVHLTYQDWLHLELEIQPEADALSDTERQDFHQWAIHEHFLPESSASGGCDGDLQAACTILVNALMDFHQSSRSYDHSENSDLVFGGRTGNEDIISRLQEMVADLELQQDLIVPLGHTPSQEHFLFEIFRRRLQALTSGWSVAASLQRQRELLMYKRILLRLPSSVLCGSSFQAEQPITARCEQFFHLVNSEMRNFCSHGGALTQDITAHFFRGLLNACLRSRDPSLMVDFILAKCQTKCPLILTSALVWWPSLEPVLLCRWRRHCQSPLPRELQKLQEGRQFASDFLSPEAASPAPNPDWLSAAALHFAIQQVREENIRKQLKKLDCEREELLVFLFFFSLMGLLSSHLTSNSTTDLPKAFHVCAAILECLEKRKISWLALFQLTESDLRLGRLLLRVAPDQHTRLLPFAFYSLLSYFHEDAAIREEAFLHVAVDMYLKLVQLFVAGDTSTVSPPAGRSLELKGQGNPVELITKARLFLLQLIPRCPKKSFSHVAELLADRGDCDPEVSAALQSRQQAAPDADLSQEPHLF
In words: co-IP; reciprocal; whole-cell extracts of FANCA-null (RA3087) and FLAG-FANCA-complemented cells; 600 μg extract with mouse anti-FLAG M2 or rabbit anti-FEN1 antibody overnight at 4 °C in 50 mM Tris-HCl pH 7.6, 100 mM NaCl, 1 mM DTT, 50 μg/mL BSA; protein G magnetic beads; Western blot. For orientation: Immunoblotting shows a protein as a band on a membrane.

In experiment [2] the target is Flap endonuclease 1 (FEN1) (human (endogenous in RA3087 cells)) (UniProt P39748). The description is as above.

Regarding “Flap endonuclease 1 (FEN1) (from UniProt P39748-1 1-380) (enzyme)”, the binding entry in experiment [1] was “binds”.

B1: FLAG-FANCA (human Fanconi anemia complementation group A protein) (natural protein, UniProt O15360-1 1-1455, looked up)
chain: T1 sequence
Take B1: in experiment [2], the binding result was “binds”.
